Assay results reported in publication PMC4033603.
Results are given in words; binding and its absence hold for the method and conditions named. In cells and extracts the contact can be indirect. Some binding calls cover weakened binding; strength is not graded here.

Chains of the proteins cited; added tags and fusions are not shown. Lines headed by an entry give the natural chain unless they say otherwise; changes in a name come on top. Residues count along the entry.
UniProt P46531: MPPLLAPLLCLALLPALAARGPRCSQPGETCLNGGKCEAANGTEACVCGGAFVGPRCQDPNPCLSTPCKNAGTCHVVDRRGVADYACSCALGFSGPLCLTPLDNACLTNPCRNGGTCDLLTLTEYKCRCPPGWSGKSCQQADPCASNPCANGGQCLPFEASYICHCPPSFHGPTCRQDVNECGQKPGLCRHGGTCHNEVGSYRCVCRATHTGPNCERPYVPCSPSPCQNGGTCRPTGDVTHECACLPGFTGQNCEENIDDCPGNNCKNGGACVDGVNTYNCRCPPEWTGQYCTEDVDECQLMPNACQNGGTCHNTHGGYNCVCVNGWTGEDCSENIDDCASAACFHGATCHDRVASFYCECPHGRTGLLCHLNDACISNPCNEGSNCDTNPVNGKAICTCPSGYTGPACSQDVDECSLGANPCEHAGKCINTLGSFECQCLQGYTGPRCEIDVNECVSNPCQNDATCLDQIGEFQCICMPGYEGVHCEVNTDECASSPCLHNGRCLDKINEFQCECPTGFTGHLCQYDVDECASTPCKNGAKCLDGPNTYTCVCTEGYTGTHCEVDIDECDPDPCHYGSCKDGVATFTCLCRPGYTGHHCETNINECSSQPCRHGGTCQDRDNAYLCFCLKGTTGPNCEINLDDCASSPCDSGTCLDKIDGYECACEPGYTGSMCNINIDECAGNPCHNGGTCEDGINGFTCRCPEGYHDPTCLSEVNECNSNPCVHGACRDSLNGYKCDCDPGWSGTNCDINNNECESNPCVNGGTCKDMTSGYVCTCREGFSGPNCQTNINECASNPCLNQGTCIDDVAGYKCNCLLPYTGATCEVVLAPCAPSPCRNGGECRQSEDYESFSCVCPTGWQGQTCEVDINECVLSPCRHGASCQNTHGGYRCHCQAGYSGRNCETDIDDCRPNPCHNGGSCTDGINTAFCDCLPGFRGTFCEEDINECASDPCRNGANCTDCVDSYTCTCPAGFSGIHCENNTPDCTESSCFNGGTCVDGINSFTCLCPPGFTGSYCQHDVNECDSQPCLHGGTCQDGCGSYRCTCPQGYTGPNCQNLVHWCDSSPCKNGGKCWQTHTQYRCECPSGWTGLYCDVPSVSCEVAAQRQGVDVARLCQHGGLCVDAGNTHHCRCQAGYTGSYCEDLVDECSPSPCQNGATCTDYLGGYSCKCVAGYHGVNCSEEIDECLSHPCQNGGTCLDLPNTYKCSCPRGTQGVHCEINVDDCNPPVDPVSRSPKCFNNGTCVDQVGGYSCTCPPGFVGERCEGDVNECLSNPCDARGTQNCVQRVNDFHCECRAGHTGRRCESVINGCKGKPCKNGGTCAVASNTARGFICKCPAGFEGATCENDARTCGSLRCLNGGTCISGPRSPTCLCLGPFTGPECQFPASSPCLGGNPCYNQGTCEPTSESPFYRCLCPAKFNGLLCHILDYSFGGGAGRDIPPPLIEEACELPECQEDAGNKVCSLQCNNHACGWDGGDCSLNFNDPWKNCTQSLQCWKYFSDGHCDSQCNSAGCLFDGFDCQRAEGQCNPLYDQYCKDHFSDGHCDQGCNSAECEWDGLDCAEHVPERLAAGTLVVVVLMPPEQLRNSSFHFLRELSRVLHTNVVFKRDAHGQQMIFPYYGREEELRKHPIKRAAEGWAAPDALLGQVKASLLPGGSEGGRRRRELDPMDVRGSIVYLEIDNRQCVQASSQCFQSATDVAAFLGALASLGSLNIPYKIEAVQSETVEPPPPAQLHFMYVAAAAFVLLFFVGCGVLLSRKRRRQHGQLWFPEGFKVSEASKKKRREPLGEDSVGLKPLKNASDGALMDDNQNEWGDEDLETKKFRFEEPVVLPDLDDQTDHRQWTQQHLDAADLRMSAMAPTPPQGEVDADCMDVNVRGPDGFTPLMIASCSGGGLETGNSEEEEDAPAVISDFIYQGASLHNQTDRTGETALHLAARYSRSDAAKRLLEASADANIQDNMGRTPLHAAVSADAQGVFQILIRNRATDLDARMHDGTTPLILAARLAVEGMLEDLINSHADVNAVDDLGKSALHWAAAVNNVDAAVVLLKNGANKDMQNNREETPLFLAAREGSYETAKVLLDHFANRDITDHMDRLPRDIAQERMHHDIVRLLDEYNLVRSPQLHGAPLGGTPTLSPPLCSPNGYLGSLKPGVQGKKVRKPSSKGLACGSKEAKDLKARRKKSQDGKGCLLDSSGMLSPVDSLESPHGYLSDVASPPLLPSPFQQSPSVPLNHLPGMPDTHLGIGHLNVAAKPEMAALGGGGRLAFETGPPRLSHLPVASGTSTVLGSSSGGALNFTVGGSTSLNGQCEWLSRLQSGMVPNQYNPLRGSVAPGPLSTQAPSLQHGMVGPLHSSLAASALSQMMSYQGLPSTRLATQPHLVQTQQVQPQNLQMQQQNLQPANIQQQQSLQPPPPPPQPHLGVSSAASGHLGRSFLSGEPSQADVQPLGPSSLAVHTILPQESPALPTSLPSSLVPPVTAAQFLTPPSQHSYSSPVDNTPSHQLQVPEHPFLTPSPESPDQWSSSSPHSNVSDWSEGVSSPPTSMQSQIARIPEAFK
NOTCH1 (human (endogenous in Jurkat)): residues 19-2555 of P46531
UniProt Q04759: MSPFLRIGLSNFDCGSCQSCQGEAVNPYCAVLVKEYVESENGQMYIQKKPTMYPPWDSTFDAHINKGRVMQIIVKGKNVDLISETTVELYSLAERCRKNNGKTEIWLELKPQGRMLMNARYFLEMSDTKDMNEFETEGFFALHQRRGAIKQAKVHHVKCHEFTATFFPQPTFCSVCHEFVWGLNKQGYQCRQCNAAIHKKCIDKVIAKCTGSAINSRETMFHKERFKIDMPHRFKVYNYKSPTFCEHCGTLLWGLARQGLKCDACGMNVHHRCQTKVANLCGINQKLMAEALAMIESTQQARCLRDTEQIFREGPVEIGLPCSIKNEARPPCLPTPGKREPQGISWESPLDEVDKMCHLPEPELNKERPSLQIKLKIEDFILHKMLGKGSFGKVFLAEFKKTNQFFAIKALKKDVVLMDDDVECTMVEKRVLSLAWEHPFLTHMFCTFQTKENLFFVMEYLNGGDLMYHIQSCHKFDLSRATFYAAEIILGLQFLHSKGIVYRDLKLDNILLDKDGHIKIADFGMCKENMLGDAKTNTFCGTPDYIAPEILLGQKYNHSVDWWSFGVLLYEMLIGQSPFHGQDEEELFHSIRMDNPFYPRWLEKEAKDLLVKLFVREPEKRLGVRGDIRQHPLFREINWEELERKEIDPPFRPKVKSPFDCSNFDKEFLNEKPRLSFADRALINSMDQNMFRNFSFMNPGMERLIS

Columns and labels:
Assay in all cases: co-IP; endogenous proteins in whole cell lysates of Jurkat T cells (also mock-infected controls) stimulated with plate-bound anti-human CD3ε and anti-human CD28 for the indicated times; 1% NP-40 lysis buffer (10 mM Tris-HCl pH 7.8, 0.5 mM EDTA, 250 mM NaCl); 2 μg antibody overnight at 4°C, protein G-sepharose; immunoblot
[1] = target: T1, CARMA1 (human (endogenous in Jurkat)) (UniProt Q9BXL7)
T1 sequence: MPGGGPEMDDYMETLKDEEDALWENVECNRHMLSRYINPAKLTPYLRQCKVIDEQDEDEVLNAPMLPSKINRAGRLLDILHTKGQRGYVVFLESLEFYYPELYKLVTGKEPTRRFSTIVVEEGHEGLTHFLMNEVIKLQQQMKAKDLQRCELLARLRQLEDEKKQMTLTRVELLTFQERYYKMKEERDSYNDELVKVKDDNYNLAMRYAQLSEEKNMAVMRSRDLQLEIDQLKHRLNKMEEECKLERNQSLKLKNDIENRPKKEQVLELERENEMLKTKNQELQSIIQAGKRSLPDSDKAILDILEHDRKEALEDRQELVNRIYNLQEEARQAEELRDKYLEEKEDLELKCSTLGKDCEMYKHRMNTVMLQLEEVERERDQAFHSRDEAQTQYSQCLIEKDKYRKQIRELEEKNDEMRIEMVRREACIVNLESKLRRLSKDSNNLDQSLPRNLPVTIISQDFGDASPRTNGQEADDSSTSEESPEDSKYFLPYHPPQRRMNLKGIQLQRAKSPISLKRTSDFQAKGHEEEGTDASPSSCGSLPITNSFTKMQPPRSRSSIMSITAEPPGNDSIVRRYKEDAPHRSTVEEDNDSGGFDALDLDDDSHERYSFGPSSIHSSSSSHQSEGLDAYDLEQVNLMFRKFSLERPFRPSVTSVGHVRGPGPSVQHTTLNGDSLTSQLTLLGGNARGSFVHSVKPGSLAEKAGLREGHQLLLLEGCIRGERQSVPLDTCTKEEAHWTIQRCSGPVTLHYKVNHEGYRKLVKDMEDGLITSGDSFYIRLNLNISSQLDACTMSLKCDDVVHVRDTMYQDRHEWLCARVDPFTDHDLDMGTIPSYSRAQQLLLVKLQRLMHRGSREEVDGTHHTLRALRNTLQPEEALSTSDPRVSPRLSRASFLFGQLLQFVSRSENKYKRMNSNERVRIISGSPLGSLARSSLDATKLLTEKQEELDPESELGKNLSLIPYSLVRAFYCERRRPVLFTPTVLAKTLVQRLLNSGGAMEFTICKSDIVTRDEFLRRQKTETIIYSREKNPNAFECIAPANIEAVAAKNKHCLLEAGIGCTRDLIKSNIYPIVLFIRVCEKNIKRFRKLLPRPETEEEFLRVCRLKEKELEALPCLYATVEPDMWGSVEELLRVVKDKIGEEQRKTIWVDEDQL

[2] = target: T2, BCL10 (human (endogenous in Jurkat)) (UniProt O95999)
T2 sequence: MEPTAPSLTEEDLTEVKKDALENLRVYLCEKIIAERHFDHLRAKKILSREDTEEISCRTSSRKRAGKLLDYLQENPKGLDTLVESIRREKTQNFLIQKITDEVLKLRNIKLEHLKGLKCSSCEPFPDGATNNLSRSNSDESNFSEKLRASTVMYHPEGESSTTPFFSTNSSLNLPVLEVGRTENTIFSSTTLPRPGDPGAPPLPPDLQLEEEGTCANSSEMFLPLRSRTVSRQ

[3] = target: NOTCH1 (human (endogenous in Jurkat)) (UniProt P46531)

Substance	binding [1]	binding [2]	binding [3]
NOTCH1 (from UniProt P46531 19-2555) (receptor)	binds	binds	–
PKCθ (from UniProt Q04759 1-706) (enzyme)	–	–	binds
intracellular domain of NOTCH1 (~110 kDa) (from UniProt P46531 1754-2555) (domain or fragment)	binds	–	–
